This is an account of results in publication PMC11243334 (Molecules, 2024).

This data set is described as follows: general procedure: Fmoc solid-phase peptide synthesis; Fmoc-hydroxylamine-2-Cl-Trt resin; HATU/HOAt/DIEA. The following applies: whole synthesis.

On to D-Phe-Gln-Trp-Ala-Val-Gly-His-Leu-NHOH, for which the “final HPLC purity” value (analytical HPLC (Luna C18, 250 × 4.6 mm), UV 220 nm, scale of the general procedure 0.1 mmol) is over 99%. In addition, the isolated yield (scale 0.1 mmol) is 3.4%.
